From patent US10314811B2, “Compositions and methods for selectively inhibiting intestinal carboxylesterase 2 enzyme activity” (The Methodist Hospital, priority 2015, dated 2019)
Some of these results come from one statement about several compounds together.

Tested on: CT 26 tumor bearing Balb/cJ mice
Test: In vivo testing of anti-diarrheal activity with CPT-11 in tumor bearing mice (Example 3)
Conditions: 40 mg/kg orally in combination with CPT-11 50 mg/kg i.p., versus CPT-11 only

Row | SMILES | delay in the appearance of diarrhea [days]
1 | O=C(/C=C/c1ccccc1)c1ccc(O)cc1O [2′,4′ dihydroxychalcone, 2′,4′-dihydroxychalcone] | 3 to 4
2 | COc1ccc([C@@H]2CC(=O)c3c(O)cc(O)cc3O2)cc1O [hesperetin] | 3 to 4
